Measured values reported in PMC9221018, “Sulfonamide-Derived Dithiocarbamate Gold(I) Complexes Induce the Apoptosis of Colon Cancer Cells by the Activation of Caspase 3 and Redox Imbalance” (Biomedicines, 2022).

The compounds below were run on differentiated Caco-2 cells (assay: MTT cytotoxicity assay in differentiated Caco-2 cells (healthy cell model)). Settings: IC50 differentiated Caco-2 divided by IC50 undifferentiated Caco-2, 72 h.
Type: cell-based, human
Procedure: The human Caco-2 cell line (TC7 clone) was kindly provided by Dr. Edith Brot-Laroche (Université Pierre et Marie Curie-Paris 6, UMR S 872, Les Cordeliers, France). Human epithelial fibroblast cells (NHDF-Ad, Lonza®®, Porriño, Spain) were kindly provided by Dr. Gracia Mendoza (Aragon Health Research Institute, IIS Aragón, Spain). Caco-2 cells (passages 40–70) and fibroblasts (passages 10–30) were maintained in a humidified atmosphere of 5% CO2 at 37 °C and grown in medium following the method used by Quero et al.. The Caco-2 cells were sub-cultured in 25 cm^2 plastic flasks at a density of 1.2 × 10^4 cells/cm^2, while the fibroblasts were sub-cultured on 75 cm^2 plastic flasks at a density of 1 × 10^4 cells/cm^2. The culture medium was replaced every 2 days.
The gold complexes were diluted in dimethyl sulfoxide (DMSO) as a 10 mM stock solution, and then diluted in cell culture medium at the desired concentrations.
For the cytotoxicity screening assays, Caco-2 cells were seeded in 96-well plates at a density of 4 × 10^3 cells/well. The culture medium was replaced with medium containing the drug panel 24 h post-seeding, and the cells were incubated for 24, 48 and 72 h. […] In differentiated Caco-2 and fibroblasts, culture medium containing metal gold complexes was added 15 days post-seeding, and the cells were incubated for 72 h. The antiproliferative effect was measured using an MTT assay, as previously described by Mármol et al.. The absorbance at 540/620 nm was measured using a SPECTROstar Nano (BMG Labtech, Ortenberg, Germany). In order to determine the selectivity index (SI), the IC50 value of the differentiated Caco-2 cells was divided by IC50 value in undifferentiated Caco-2, obtaining the ratio of the normal/cancerous cells’ toxicity.

In order of falling “Selectivity Index” value:
1. O=S(=O)(NC(=S)[S][Au][PH](c1ccccc1)(c1ccccc1)c1ccccc1)c1ccccc1 [Complex 1, [Au(S2CNHSO2C6H5)(PPh3)]]  11.2
2. [Au(S2CNHSO2-p-Me-C6H4)(IMePropargyl)] [Complex 8]  6.46
3. C#CCn1ccn(Cc2ccccc2)[c]1=[Au-].O=S(=O)(NC(=S)[S-])c1ccccc1 [Complex 9, [Au(S2CNHSO2C6H5)(IBnPropargyl)]]  2.28
